The test has as its target Ikβ-α (human (endogenous in MDA-MB-231 and MDA-MB-468)) (UniProt P25963). In words: co-IP; co-IP of HSPB1 with Ikβ-α or NF-κB in MDA-MB-231 and MDA-MB-468 cells after treatment with 1 μM doxorubicin; which protein was precipitated is not told.

Sequences of proteins named here, by UniProt entry; tags and fusion partners are left off.
UniProt P25963: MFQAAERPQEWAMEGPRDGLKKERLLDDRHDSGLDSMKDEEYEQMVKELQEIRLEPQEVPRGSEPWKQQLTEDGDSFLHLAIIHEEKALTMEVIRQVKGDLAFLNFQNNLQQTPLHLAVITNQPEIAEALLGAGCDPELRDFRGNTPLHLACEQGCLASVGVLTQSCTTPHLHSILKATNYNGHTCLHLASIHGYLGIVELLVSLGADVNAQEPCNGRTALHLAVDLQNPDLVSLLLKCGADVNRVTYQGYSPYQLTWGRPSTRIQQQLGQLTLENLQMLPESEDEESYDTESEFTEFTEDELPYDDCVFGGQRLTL
UniProt P04792: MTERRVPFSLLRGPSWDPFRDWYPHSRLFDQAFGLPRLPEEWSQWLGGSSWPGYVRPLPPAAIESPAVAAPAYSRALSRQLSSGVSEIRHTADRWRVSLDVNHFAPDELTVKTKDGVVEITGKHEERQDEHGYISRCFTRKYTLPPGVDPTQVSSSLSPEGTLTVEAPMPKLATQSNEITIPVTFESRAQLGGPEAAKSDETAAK

These are yes or no findings as the source states them, for the method shown. In cells and extracts the contact can be indirect. Some entries that bind do so weakly or less than the wild type.

As to “heat shock protein beta-1 (HSPB1) (from UniProt P04792 1-205)”, the binding result is “binds”.

The values are drawn from publication PMC10349816.
